From the supplement of paper PMC10849652
The other results are listed elsewhere or left out.

Amino acid sequences for entries named in this document (tags omitted). A change or cut given only in a name is not applied to a line headed by its entry.
UniProt P08922: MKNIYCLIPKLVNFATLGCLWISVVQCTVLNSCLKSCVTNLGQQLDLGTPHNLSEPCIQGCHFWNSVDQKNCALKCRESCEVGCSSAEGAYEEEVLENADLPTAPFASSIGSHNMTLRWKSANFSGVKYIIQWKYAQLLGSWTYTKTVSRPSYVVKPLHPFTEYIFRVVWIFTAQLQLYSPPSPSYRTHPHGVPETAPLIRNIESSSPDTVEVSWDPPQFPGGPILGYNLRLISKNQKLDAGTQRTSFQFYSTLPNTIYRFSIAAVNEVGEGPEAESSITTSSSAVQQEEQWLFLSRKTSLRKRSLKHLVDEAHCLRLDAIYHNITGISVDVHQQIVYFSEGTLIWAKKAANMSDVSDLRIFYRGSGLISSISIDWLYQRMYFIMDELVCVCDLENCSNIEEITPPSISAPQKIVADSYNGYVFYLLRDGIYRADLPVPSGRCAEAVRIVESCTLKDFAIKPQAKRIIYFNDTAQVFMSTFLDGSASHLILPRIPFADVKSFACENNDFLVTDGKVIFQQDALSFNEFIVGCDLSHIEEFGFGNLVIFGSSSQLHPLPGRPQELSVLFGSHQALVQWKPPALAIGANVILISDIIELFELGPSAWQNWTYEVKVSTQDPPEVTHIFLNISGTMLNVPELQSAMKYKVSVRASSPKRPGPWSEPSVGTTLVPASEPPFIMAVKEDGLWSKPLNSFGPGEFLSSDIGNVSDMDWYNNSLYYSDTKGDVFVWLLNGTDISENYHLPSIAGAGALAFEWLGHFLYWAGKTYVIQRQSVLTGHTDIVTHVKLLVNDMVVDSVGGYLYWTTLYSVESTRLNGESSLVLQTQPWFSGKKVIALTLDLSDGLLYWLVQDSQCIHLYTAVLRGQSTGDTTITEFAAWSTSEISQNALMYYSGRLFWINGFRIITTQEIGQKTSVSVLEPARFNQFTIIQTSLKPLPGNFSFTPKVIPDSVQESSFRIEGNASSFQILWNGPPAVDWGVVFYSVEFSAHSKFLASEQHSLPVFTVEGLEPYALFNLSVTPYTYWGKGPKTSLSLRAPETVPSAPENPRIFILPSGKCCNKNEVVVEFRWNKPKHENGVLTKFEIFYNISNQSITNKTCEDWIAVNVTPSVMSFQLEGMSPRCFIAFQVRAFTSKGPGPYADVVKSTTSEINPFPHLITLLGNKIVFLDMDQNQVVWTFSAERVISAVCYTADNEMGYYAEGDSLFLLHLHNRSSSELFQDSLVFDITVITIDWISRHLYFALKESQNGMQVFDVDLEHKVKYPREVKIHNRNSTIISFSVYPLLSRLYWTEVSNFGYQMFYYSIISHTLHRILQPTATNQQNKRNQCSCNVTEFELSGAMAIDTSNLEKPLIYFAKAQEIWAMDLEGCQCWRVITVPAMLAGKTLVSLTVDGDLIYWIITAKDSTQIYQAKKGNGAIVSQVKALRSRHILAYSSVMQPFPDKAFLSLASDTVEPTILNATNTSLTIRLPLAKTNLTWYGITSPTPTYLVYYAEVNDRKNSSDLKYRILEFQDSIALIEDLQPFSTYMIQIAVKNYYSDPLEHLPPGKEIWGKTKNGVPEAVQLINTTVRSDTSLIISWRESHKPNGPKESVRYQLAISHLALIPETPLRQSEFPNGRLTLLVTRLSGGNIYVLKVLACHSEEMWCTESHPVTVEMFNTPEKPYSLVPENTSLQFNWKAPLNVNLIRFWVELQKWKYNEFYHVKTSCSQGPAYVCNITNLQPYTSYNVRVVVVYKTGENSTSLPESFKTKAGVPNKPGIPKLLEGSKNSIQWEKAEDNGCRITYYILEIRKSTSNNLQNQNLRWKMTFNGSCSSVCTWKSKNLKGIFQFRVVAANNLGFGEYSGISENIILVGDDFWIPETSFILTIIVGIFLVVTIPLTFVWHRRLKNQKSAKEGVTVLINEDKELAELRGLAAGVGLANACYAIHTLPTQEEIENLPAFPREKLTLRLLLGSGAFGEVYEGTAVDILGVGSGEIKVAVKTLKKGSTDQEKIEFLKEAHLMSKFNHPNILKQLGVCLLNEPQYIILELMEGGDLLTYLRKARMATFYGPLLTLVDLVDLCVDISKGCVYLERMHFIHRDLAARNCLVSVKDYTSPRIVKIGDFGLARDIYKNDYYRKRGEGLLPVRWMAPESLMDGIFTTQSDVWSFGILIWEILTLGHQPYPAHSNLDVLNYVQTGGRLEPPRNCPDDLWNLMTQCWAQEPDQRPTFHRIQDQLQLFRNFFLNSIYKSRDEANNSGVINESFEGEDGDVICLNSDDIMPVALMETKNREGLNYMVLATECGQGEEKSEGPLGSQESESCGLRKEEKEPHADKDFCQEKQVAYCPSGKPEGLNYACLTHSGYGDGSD
UniProt P78317: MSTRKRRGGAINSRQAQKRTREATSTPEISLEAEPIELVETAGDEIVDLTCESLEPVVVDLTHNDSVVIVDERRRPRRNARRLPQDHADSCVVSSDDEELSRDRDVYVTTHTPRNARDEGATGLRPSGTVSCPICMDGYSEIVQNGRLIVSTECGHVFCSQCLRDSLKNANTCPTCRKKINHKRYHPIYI

Key:
Assay in all cases: log2 fold change, soluble protein after heating vs DMSO (PISA); higher = thermal stabilisation; K562 cells, 10 uM, 30 min; active = over 0.2 and 3.5 SD of the protein, either way, in both replicates (recomputed)
[1] = compound: C1=CC=C(C=C1)[C@H](COC2=CC3=C(C=C2)NC(=O)N3)NC(=O)C4=CC=CN(C4=O)CC5=CC(=C(C=C5)F)F
Procedure, shortened: (§1)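 K562 cells (2×10^6 cells/mL) were treated with 10 μM compound for 30 min, and aliquots were heated for 3 min over 48°C-58°C. Pooled aliquots were extracted in PBS with 0.5% NP-40 at 4°C, and the supernatant after 21,000xg for 90 min was measured by TMTpro 16plex LC-MS/MS with channel sums equalised. Reported thermal stability, relative to control samples and from duplicates, is a log2 fold change.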

[2] = compound: CC1=C(SC2=C1C(=N[C@H](C3=NN=C(N32)C)CC(=O)N)C4=CC=C(C=C4)Cl)C
Procedure, shortened: as §1

[3] = compound: c1ccc([C@@H]2C[C@H]2NC2CCNCC2)cc1
Procedure, shortened: as §1

[4] = compound: CC1=C2C(=CC=C1)N=C(N(C2=O)C3=CC=CC=C3C)CN4C=NC5=C(N=CN=C54)N
Procedure, shortened: as §1

[5] = compound: Cc1sc2c(c1C)C(c1ccc(Cl)cc1)=N[C@@H](CC(=O)OC(C)(C)C)c1nnc(C)n1-2
Procedure, shortened: as §1

Measured: log2 fold change

ROS1 (UniProt P08922)
inactive: [1] -0.137 | [2] 0.107 | [3] 0.021

RPL7A (UniProt P62424)
inactive: [1] 0.3 | [2] -0.5 | [4] -0.652 | [5] 0.314 | [3] -0.004

RNF4 (UniProt P78317)
inactive: [1] 0.056 | [5] -0.151
